One molecule from PMC12586438 can be followed below.

Protein sequences, listed by entry. Tags and fused reporters are not part of them. Lines headed by an entry give the natural chain unless they say otherwise; changes in a name come on top.
UniProt Q9BWQ8: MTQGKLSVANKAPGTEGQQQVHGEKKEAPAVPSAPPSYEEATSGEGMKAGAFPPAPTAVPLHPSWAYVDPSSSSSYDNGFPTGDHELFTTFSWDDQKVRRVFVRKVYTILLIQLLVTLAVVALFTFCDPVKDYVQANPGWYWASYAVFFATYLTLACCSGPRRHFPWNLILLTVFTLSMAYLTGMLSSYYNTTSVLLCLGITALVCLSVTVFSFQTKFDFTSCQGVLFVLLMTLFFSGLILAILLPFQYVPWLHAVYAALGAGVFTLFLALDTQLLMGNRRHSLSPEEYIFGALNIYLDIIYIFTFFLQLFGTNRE

Results are given in words; binding and its absence hold for the method and conditions named. In cells and extracts the contact can be indirect. Binding calls can cover weak binding; strength is not graded here. Sequences can lack the tags named with a protein.

The target in this test is FAIM2 lacking the LIR domain (FAIM2-ΔLIR) (UniProt Q9BWQ8). Nature of the test: co-IP; HEK293T cells transfected with the indicated plasmids; immunoprecipitation and western blot. Background: In western blotting, separated proteins are transferred to a membrane and probed.

B1: CREB-regulated transcription coactivator 2 (HA-CRTC2) (protein, UniProt Q53ET0 1-693)
chain: MATSGANGPGSATASASNPRKFSEKIALQKQRQAEETAAFEEVMMDIGSTRLQAQKLRLAYTRSSHYGGSLPNVNQIGSGLAEFQSPLHSPLDSSRSTRHHGLVERVQRDPRRMVSPLRRYTRHIDSSPYSPAYLSPPPESSWRRTMAWGNFPAEKGQLFRLPSALNRTSSDSALHTSVMNPSPQDTYPGPTPPSILPSRRGGILDGEMDPKVPAIEENLLDDKHLLKPWDAKKLSSSSSRPRSCEVPGINIFPSPDQPANVPVLPPAMNTGGSLPDLTNLHFPPPLPTPLDPEETAYPSLSGGNSTSNLTHTMTHLGISRGMGLGPGYDAPGLHSPLSHPSLQSSLSNPNLQASLSSPQPQLQGSHSHPSLPASSLARHVLPTTSLGHPSLSAPALSSSSSSSSTSSPVLGAPSYPASTPGASPHHRRVPLSPLSLLAGPADARRSQQQLPKQFSPTMSPTLSSITQGVPLDTSKLSTDQRLPPYPYSSPSLVLPTQPHTPKSLQQPGLPSQSCSVQSSGGQPPGRQSHYGTPYPPGPSGHGQQSYHRPMSDFNLGNLEQFSMESPSASLVLDPPGFSEGPGFLGGEGPMGGPQDPHTFNHQNLTHCSRHGSGPNIILTGDSSPGFSKEIAAALAGVPGFEVSAAGLELGLGLEDELRMEPLGLEGLNMLSDPCALLPDPAVEESFRSDRLQ
With B1, the binding result is given as “binds”.
